These are yes or no findings as the source states them, for the method shown. Some entries that bind do so weakly or less than the wild type.
Target: T1, α2A-adrenergic receptor (mouse (endogenous in STHdh cells and R6/2 mouse brain)), Q01338
T1 chain: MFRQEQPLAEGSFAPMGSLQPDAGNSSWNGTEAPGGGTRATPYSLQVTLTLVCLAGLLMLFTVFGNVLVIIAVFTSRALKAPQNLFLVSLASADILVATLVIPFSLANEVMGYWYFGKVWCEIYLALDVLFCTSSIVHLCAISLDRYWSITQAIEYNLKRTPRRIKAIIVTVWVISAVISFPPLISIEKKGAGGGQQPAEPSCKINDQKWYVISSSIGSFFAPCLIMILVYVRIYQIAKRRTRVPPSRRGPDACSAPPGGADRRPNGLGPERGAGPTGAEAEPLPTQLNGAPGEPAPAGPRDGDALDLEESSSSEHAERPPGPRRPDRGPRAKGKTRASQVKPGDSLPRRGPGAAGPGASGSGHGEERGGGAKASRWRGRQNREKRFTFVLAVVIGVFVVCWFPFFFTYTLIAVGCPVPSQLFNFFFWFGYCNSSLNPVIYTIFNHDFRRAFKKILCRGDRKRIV
Assay: denaturing SDS-PAGE and Western blot (band size); RIPA lysates of STHdh cells and mouse brain homogenates, 30 µg protein, Bolt 4-12% Bis-Tris gels with MES running buffer; anti-α2A-AR antibody; monomer approx. 55 kDa, dimer band >100 kDa
Conditions: remark: other sources report otherwise

binding: binds
B1: α2A-adrenergic receptor, Q01338 1-465 (receptor)
chain: T1 chain
